Results are given in words; binding and its absence hold for the method and conditions named. In cells and extracts the contact can be indirect. Some results given as binding are weak or reduced against the parent protein; the word gives no strength. Sequences can lack the tags named with a protein.

Chains of the proteins cited; added tags and fusions are not shown.
UniProt P32121: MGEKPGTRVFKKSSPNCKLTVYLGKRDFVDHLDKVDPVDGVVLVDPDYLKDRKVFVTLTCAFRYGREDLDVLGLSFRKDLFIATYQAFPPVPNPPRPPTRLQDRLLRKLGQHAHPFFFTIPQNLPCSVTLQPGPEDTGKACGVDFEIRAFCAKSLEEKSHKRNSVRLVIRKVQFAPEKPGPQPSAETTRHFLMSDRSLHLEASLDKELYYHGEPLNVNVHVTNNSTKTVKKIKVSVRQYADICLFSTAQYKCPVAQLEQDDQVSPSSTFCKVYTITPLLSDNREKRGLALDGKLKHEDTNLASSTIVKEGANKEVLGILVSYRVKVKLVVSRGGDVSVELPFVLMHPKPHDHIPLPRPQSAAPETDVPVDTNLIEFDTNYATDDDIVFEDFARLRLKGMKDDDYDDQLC

The experiment concerns the target T1, MasR-YFP (human MAS1 oncogene receptor fused to enhanced yellow fluorescent protein) (human) (UniProt P04201).
T1 sequence: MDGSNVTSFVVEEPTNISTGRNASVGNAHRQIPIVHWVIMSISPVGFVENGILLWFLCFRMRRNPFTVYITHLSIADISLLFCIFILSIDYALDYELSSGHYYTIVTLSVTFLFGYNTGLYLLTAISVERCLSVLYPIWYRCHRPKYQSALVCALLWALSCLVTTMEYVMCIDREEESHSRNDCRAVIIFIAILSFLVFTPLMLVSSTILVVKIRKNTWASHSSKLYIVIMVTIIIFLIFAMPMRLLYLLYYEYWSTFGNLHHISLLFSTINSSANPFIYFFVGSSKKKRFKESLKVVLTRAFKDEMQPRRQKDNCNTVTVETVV
The experiment in a line: FRET or BRET; β-arrestin recruitment: BRET between β-arrestin II-RLuc and receptor-YFP in HEK-293T cells 48 h after transfection, with or without ACE2-HA; stimulated 10 min with agonist (Ang II, CGP or Ang 1-7, 0.1 nM to 3 µM); 5 µM coelenterazine H.

As for “β-arrestin II-RLuc (from UniProt P32121 1-409)”, the binding result was “binds”.

For the origin of these results see paper PMC7766085.
